The list shows a part of the results.
Key:
Experiment in all cases: log2 fold change, soluble protein after heating vs DMSO (PISA); higher = thermal stabilisation; K562 lysate, 10 uM; active = over 0.2 and 3.5 SD of the protein, either way, in both replicates (recomputed)
ibrutinib = compound: C=CC(=O)N1CCC[C@@H](n2nc(-c3ccc(Oc4ccccc4)cc3)c3c(N)ncnc32)C1 [ibrutinib]
Procedure, shortened: (§1)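 The values are log-two fold changes in thermal stability compared with solvent controls and come from duplicates. They were obtained by TMTpro 16plex LC-MS/MS, with channel sums equalised, on the supernatant after 21,000xg for 90 min. That supernatant came from crude K562 extract at 1 mg/mL protein treated with 10 μM compound for 30 min, heated for 3 min across 48°C-58°C, pooled and brought to 0.5% NP-40 at 4°C.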

Sequences of proteins named here, by UniProt entry; tags and fusion partners are left off. A change or cut given only in a name is not applied to a line headed by its entry.
UniProt P62316, whole entry, looked up: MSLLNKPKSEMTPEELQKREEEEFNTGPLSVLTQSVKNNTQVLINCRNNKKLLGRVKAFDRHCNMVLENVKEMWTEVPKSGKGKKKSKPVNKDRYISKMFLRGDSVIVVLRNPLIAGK
UniProt Q9UPR3: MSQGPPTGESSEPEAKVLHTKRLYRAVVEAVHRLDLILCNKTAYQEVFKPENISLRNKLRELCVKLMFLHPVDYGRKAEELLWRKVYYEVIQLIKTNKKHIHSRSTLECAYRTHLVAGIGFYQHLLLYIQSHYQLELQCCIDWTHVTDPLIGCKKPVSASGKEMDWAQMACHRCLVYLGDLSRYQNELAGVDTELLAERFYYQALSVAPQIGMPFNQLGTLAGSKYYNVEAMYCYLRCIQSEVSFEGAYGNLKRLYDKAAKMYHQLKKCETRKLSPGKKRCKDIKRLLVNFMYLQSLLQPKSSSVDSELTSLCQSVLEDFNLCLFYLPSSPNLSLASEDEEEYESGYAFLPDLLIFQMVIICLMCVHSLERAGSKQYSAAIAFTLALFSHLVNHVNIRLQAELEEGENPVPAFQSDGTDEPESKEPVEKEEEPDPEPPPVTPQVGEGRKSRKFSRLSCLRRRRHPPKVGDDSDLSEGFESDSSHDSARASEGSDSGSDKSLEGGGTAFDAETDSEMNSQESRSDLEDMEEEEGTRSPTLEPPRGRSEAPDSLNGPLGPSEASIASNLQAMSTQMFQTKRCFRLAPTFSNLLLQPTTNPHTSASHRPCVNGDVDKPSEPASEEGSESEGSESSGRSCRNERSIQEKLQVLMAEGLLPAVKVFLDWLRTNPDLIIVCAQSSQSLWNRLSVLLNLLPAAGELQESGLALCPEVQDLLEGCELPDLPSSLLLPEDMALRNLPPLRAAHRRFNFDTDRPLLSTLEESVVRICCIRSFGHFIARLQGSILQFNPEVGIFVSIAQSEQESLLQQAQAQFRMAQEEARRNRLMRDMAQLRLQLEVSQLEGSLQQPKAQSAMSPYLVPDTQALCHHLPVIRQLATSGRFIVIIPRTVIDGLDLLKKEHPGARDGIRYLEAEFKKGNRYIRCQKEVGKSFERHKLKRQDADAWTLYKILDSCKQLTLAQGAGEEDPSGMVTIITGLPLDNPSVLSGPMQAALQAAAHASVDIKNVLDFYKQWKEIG
UniProt O75643, whole entry, looked up: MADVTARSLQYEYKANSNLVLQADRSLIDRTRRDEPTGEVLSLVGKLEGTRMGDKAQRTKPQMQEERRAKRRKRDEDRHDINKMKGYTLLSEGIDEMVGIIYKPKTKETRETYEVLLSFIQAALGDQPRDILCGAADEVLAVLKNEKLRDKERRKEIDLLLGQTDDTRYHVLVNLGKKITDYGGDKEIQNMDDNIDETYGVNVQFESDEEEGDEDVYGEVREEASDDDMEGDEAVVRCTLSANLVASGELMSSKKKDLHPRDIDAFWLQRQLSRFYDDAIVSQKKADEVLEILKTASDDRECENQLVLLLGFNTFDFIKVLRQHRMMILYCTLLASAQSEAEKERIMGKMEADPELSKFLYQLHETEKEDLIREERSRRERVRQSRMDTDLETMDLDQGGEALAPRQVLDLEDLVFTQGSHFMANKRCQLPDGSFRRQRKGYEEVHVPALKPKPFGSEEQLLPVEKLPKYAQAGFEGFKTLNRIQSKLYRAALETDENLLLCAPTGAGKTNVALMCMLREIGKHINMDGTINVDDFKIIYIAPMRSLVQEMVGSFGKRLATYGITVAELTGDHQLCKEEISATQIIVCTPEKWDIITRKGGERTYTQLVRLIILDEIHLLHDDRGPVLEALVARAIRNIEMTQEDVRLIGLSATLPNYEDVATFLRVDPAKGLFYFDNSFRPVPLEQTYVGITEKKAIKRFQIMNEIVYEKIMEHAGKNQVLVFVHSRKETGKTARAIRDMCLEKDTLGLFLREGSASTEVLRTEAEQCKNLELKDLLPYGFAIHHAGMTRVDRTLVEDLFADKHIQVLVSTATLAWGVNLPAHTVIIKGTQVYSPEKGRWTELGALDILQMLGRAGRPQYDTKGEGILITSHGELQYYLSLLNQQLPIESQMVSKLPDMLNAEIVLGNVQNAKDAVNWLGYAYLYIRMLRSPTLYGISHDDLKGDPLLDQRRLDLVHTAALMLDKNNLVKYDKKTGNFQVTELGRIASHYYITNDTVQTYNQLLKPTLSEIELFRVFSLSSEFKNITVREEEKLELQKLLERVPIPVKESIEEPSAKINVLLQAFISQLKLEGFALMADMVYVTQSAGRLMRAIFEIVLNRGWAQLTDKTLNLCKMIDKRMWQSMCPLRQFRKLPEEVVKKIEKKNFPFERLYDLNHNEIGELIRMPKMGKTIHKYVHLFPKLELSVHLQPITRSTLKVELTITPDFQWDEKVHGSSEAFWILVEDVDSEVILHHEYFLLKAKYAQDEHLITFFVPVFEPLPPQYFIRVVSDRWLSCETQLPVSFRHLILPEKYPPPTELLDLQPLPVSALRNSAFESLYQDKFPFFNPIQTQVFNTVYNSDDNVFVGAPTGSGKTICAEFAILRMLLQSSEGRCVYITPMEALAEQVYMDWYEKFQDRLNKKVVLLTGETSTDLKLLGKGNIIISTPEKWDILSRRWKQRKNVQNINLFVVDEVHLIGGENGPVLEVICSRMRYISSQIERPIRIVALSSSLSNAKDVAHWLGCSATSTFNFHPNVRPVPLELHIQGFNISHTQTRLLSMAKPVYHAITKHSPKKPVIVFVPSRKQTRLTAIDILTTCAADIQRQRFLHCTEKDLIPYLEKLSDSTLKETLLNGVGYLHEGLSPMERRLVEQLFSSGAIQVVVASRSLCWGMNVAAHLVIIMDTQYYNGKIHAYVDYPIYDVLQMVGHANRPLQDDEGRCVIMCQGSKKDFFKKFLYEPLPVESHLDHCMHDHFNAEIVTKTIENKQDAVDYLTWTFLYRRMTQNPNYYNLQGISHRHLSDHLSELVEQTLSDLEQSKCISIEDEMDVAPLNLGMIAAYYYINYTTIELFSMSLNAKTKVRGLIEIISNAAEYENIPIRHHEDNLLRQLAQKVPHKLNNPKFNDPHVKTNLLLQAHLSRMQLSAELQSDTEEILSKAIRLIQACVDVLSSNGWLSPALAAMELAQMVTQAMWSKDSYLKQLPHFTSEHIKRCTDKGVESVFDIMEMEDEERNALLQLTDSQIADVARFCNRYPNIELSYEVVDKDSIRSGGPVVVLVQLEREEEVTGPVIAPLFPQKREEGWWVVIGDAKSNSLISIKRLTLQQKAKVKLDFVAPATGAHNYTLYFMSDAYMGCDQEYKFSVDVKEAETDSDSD
UniProt Q6GMV2: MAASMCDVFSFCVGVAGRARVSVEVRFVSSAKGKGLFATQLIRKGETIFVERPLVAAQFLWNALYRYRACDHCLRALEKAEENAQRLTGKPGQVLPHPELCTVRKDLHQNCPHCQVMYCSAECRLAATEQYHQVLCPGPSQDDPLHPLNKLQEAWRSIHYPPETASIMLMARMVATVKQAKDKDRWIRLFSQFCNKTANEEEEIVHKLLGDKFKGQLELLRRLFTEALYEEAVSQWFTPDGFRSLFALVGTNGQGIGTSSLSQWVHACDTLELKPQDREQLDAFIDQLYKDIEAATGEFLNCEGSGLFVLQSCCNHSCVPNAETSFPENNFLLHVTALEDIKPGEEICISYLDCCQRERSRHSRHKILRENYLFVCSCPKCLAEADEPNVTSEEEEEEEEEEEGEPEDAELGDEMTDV
UniProt Q12824, whole entry, looked up: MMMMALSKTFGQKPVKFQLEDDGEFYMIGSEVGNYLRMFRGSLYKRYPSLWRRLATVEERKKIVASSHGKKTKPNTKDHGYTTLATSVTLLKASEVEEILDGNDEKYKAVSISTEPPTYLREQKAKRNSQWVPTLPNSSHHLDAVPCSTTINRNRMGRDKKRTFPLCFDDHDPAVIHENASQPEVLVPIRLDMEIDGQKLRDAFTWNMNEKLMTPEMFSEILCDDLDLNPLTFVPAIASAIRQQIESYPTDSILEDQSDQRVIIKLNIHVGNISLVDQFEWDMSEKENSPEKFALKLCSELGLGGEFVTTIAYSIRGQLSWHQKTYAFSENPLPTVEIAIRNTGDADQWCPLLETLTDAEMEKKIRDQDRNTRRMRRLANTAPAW
UniProt Q14683: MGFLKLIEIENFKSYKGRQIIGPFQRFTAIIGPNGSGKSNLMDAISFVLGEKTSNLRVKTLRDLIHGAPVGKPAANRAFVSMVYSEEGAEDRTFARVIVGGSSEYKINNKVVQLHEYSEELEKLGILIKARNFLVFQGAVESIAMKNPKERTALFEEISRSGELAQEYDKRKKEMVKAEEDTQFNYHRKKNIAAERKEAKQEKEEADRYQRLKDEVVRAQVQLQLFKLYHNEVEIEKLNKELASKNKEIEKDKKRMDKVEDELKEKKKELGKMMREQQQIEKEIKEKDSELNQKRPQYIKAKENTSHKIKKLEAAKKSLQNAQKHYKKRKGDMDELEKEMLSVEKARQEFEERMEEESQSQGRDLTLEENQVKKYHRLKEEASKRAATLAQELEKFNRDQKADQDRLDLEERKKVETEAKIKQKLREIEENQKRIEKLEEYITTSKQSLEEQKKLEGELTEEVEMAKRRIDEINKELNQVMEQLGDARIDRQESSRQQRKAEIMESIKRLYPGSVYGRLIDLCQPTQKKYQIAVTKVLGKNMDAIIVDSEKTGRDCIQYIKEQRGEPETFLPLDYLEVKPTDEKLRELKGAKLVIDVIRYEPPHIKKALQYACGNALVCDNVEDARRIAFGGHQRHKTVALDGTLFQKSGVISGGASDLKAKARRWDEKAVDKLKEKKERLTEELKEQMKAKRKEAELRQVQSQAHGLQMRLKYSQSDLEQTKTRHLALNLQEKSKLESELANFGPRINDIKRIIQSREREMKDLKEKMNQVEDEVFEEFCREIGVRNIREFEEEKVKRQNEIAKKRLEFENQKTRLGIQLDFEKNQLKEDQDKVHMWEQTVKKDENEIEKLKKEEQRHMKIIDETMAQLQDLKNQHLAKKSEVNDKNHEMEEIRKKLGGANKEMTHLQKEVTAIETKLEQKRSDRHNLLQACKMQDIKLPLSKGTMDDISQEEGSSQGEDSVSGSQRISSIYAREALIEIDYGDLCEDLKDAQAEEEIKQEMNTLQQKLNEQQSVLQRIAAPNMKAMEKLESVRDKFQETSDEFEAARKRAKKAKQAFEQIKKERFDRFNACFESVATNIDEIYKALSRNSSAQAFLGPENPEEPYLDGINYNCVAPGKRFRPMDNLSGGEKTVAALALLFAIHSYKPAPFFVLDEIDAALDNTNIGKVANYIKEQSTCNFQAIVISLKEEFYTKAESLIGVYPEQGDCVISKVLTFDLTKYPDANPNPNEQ
UniProt Q8NDV3: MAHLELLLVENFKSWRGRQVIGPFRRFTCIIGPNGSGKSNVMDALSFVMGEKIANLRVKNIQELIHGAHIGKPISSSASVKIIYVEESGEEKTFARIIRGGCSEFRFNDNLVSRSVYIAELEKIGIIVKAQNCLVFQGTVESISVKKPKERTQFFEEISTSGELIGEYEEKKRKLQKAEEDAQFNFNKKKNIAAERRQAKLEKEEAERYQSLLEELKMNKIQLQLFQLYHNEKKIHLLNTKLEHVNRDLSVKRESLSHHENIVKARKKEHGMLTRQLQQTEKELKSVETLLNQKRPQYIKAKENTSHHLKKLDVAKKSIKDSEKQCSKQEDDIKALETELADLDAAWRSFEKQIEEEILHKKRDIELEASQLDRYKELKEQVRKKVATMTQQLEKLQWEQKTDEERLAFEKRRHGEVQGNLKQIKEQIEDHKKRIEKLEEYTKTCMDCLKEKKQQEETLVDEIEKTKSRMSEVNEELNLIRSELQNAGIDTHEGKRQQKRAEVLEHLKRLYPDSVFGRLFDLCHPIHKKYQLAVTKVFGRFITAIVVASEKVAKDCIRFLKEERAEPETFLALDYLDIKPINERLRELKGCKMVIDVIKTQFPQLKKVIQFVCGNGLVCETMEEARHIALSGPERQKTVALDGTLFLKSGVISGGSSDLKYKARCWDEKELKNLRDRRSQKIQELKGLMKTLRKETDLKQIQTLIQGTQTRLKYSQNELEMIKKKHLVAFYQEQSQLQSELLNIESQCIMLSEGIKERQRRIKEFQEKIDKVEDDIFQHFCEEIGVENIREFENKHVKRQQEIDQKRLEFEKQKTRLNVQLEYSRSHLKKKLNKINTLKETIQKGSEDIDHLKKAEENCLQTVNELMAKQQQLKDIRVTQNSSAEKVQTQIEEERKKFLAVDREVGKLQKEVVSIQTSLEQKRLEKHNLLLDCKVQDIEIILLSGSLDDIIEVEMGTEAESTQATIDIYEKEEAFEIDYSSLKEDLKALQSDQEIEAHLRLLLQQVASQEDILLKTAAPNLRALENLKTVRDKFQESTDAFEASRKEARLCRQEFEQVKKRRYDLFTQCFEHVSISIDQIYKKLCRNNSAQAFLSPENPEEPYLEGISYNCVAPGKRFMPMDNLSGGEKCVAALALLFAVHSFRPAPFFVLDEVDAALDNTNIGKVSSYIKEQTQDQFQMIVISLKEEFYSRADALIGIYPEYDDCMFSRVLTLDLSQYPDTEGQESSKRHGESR

[1] = compound: CC(=O)c1cnc2ccc(-c3cc(Cl)c(O)c(Cl)c3)nc2c1N[C@H]1CC[C@H](CN(C)C)CC1
Procedure, shortened: as §1

ralimetinib = compound: CC(C)(C)Cn1c(N)nc2ccc(-c3[nH]c(C(C)(C)C)nc3-c3ccc(F)cc3)nc21 [ralimetinib]
Procedure, shortened: as §1

[2] = compound: CC(C)(O)CC(=O)NCCn1ccc2ncnc(Nc3ccc(Oc4cccc(C(F)(F)F)c4)c(Cl)c3)c21
Procedure, shortened: as §1

[3] = compound: CC(C)C1=C2N=C(C=C(N2N=C1)NCC3=CC=CC=C3)NCCCCCCN
Procedure, shortened: as §1

[4] = compound: CC1=C(C(CC(=O)N1)C2=CC=C(C=C2)C(F)(F)F)C(=O)NC3=C(C=C4C(=C3)C=NN4)F
Procedure, shortened: as §1

[5] = compound: CC1=C(C2=C(C=C1)C(=O)C3=CC=CC=C3N2CCCN)C
Procedure, shortened: as §1

[6] = compound: CC1=C(C=C(C=C1)NC(=O)C2=CC(=CC=C2)C(C)(C)C#N)NC3=CC4=C(C=C3)N=CN(C4=O)C
Procedure, shortened: as §1

[7] = compound: CC1=C(C=C(C=C1)NC(=O)C2=CC(=CC=C2)N(C)C)NC(=O)C3=CC=C(C=C3)O
Procedure, shortened: as §1

[8] = compound: CC1=CC=C(C=C1)SC2=C3C=C(SC3=CN=C2)C(=O)N
Procedure, shortened: as §1

vemurafenib = compound: CCCS(=O)(=O)Nc1ccc(F)c(C(=O)c2c[nH]c3ncc(-c4ccc(Cl)cc4)cc23)c1F [vemurafenib]
Procedure, shortened: as §1

[9] = compound: CCCS(=O)(=O)Nc1ccc(F)c(C(=O)c2c[nH]c3ncc(Cl)cc23)c1F
Procedure, shortened: as §1

barasertib = compound: CCN(CCCOc1ccc2c(Nc3cc(CC(=O)Nc4cccc(F)c4)[nH]n3)ncnc2c1)CCOP(=O)(O)O [barasertib]
Procedure, shortened: as §1

[10] = compound: CC[C@@H]1C(=O)N(C)c2cnc(Nc3ccc(C(=O)NC4CCN(C)CC4)cc3OC)nc2N1C1CCCC1
Procedure, shortened: as §1

volasertib = compound: CC[C@@H]1C(=O)N(C)c2cnc(Nc3ccc(C(=O)N[C@H]4CC[C@H](N5CCN(CC6CC6)CC5)CC4)cc3OC)nc2N1C(C)C [volasertib]
Procedure, shortened: as §1

[11] = compound: CCn1c(C(=O)N(C2CC2)C2CC2)cc2c3c(ncn3C)c(Nc3cc(C)n(C)n3)nc21
Procedure, shortened: as §1

[12] = compound: CCn1cc(-c2ccnc3[nH]c(-c4cccc(CN(C)C)c4)cc23)c(-c2ccc(NC(=O)N(C)C)cc2)n1
Procedure, shortened: as §1

[13] = compound: CN1CCC(CNc2ccc3ncc(-c4cccc(OC(F)(F)F)c4)n3n2)CC1
Procedure, shortened: as §1

saracatinib = compound: CN1CCN(CCOc2cc(OC3CCOCC3)c3c(Nc4c(Cl)ccc5c4OCO5)ncnc3c2)CC1 [saracatinib]
Procedure, shortened: as §1

sotrastaurin = compound: CN1CCN(c2nc(C3=C(c4c[nH]c5ccccc45)C(=O)NC3=O)c3ccccc3n2)CC1 [sotrastaurin]
Procedure, shortened: as §1

Row | Target | log2 fold change (ibrutinib) | log2 fold change [1] | log2 fold change (ralimetinib) | log2 fold change [2] | log2 fold change [3] | log2 fold change [4] | log2 fold change [5] | log2 fold change [6] | log2 fold change [7] | log2 fold change [8] | log2 fold change (vemurafenib) | log2 fold change [9] | log2 fold change (barasertib) | log2 fold change [10] | log2 fold change (volasertib) | log2 fold change [11] | log2 fold change [12] | log2 fold change [13] | log2 fold change (saracatinib) | log2 fold change (sotrastaurin)
1 | SNX9 (UniProt Q9Y5X1) | inactive: 0.02 | inactive: -0.005 | inactive: 0.026 | inactive: 0.042 | inactive: -0.002 | inactive: -0.01 | inactive: 0.037 | inactive: -0.023 | inactive: 0.009 | inactive: 0.018 | inactive: -0.017 | inactive: 0.001 | inactive: 0.028 | inactive: -0.025 | inactive: -0.017 | inactive: 0.035 | inactive: -0.012 | inactive: 0.013 | inactive: -0.001 | inactive: 0.02
2 | SNRPD2 (UniProt P62316) | inactive: -0.028 | inactive: -0.033 | inactive: -0.018 | inactive: -0.041 | inactive: 0.007 | inactive: -0.011 | inactive: 0.016 | inactive: 0.01 | inactive: 0.015 | inactive: -0.005 | inactive: -0.008 | inactive: -0.019 | inactive: 0.001 | inactive: 0.058 | inactive: 0.033 | inactive: 0.018 | inactive: -0.083 | inactive: 0.051 | inactive: -0.021 | inactive: 0.011
3 | SNX14 (UniProt Q9Y5W7) | inactive: 0.041 | inactive: -0.065 | inactive: -0.422 | inactive: -0.419 | inactive: 0.067 | inactive: 0.098 | inactive: -0.058 | inactive: 0.375 | inactive: 0.018 | inactive: 0 | inactive: -0.053 | inactive: -0.014 | inactive: 0.263 | inactive: 0.354 | inactive: 0.041 | inactive: -0.44 |  |  | inactive: -0.022 | inactive: -0.157
4 | SMARCD1 (UniProt Q96GM5) | inactive: 0.051 | inactive: 0.023 | inactive: 0.014 | inactive: 0.02 | inactive: 0.018 | inactive: 0.022 | inactive: -0.008 | inactive: -0.013 | inactive: 0.01 | inactive: 0.008 | inactive: 0.01 | inactive: 0.028 | inactive: 0.008 | inactive: -0.012 | inactive: -0.01 | inactive: 0.004 | inactive: -0.035 | inactive: 0 | inactive: 0.066 | inactive: -0.025
5 | SMG5 (UniProt Q9UPR3) | inactive: -0.041 | inactive: 0.048 | inactive: 0.021 | inactive: -0.032 | inactive: -0.037 | inactive: 0.071 | inactive: 0.015 | inactive: -0.117 | inactive: 0.057 | inactive: 0.024 | inactive: 0.009 | inactive: 0.048 | inactive: 0.047 | inactive: 0.029 | inactive: -0.006 | inactive: 0.068 | inactive: 0.038 | inactive: -0.004 | inactive: 0.05 | inactive: -0.024
6 | SMYD2 (UniProt Q9NRG4) | inactive: 0.05 | inactive: 0 | inactive: -0.009 | inactive: 0 | inactive: 0.076 | inactive: 0.012 | inactive: -0.027 | inactive: -0.006 | inactive: -0.027 | inactive: -0.009 | inactive: 0.012 | inactive: 0.019 | inactive: 0.106 | inactive: -0.056 | inactive: -0.126 | inactive: 0.037 | inactive: -0.005 | inactive: -0.047 | inactive: -0.082 | inactive: -0.047
7 | SNX3 (UniProt O60493) | inactive: 0.018 | inactive: 0.062 | inactive: 0.02 | inactive: 0.003 | inactive: -0.001 | inactive: -0.032 | inactive: 0.038 | inactive: -0.04 | inactive: -0.02 | inactive: 0.041 | inactive: -0.09 | inactive: -0.023 | inactive: 0.017 | inactive: -0.034 | inactive: -0.054 | inactive: 0.071 | inactive: 0.003 | inactive: 0.016 | inactive: 0.009 | inactive: 0.006
8 | SNRNP200 (UniProt O75643) | inactive: -0.002 | inactive: -0.005 | inactive: 0.022 | inactive: -0.015 | inactive: 0.009 | inactive: -0.01 | inactive: 0.001 | inactive: -0.018 | inactive: 0.004 | inactive: 0.013 | inactive: 0.012 | inactive: 0.005 | inactive: -0.009 | inactive: -0.007 | inactive: -0.015 | inactive: 0.004 | inactive: -0.057 | inactive: 0.001 | inactive: 0.006 | inactive: 0.025
9 | SMYD5 (UniProt Q6GMV2) | inactive: 0.055 | inactive: 0.066 | inactive: -0.042 | inactive: 0.004 | inactive: 0.035 | inactive: -0.022 | inactive: 0.029 | inactive: 0.013 | inactive: -0.044 | inactive: -0.033 | inactive: 0.085 | inactive: 0.012 | inactive: -0.015 | inactive: -0.033 | inactive: 0.002 | inactive: -0.009 | inactive: -0.017 | inactive: -0.016 | inactive: 0.038 | inactive: -0.003
10 | SMARCB1 (UniProt Q12824) | inactive: 0.036 | inactive: 0.024 | inactive: 0.011 | inactive: 0.014 | inactive: 0.006 | inactive: 0.028 | inactive: -0.03 | inactive: 0.013 | inactive: -0.004 | inactive: 0.054 | inactive: 0.031 | inactive: 0.037 | inactive: -0.003 | inactive: -0.065 | inactive: -0.042 | inactive: -0.021 | inactive: -0.083 | inactive: -0.015 | inactive: 0.005 | inactive: 0.032
11 | SMC1A (UniProt Q14683) | inactive: 0.01 | inactive: -0.009 | inactive: -0.017 | inactive: -0.025 | inactive: -0.009 | inactive: 0 | inactive: -0.015 | inactive: -0.018 | inactive: 0.003 | inactive: -0.007 | inactive: -0.008 | inactive: 0.015 | inactive: 0.013 | inactive: 0.004 | inactive: -0.008 | inactive: -0.009 | inactive: 0.064 | inactive: -0.001 | inactive: -0.001 | inactive: 0.002
12 | SMC1B isoform 3 (UniProt Q8NDV3) | inactive: 0.013 | inactive: 0.017 | inactive: 0.07 | inactive: -0.029 | inactive: 0.001 | inactive: -0.012 | inactive: -0.001 | inactive: 0.021 | inactive: 0.026 | inactive: -0.005 | inactive: 0.149 | inactive: 0.002 | inactive: 0.003 | inactive: -0.073 | inactive: 0.024 | inactive: -0.071 |  |  | inactive: 0.055 | inactive: -0.02
13 | SOHLH2 isoform 3 (UniProt Q9NX45) | inactive: 0.06 | inactive: 0.022 | inactive: 0.028 | inactive: -0.012 | inactive: 0.041 | inactive: 0.013 | inactive: 0.024 | inactive: -0.049 | inactive: 0.039 | inactive: -0.033 |  | inactive: 0.008 | inactive: -0.029 | inactive: -0.038 | inactive: 0.078 | inactive: -0.003 | inactive: -0.029 | inactive: 0.112 | inactive: 0.038 | inactive: 0.067
14 | SNCG (UniProt O76070) | inactive: -0.012 | inactive: -0.015 | inactive: -0.002 | inactive: 0.027 | inactive: 0.02 | inactive: -0.051 | inactive: -0.027 | inactive: 0.033 | inactive: -0.024 | inactive: -0.034 | inactive: -0.001 | inactive: -0.004 | inactive: 0.054 | inactive: 0.074 | inactive: 0.051 | inactive: -0.056 | inactive: -0.061 | inactive: 0.073 | inactive: -0.028 | inactive: -0.02
15 | SMIM8 (UniProt Q96KF7) | inactive: 0.073 | inactive: -0.02 | inactive: 0.059 | inactive: -0.136 | inactive: -0.095 | inactive: -0.025 | inactive: -0.128 | inactive: 0.038 | inactive: 0.053 | inactive: -0.006 | inactive: 0.037 | inactive: 0.048 | inactive: 0.088 | inactive: -0.003 | inactive: 0.012 | inactive: 0.057 | active: -0.382 | inactive: 0.177 | inactive: -0.071 | inactive: -0.027

Look-ups from the results shown:
log2 fold change (barasertib) with SNRNP200 (UniProt O75643) is entered as inactive: -0.009
log2 fold change (saracatinib) with SMIM8 (UniProt Q96KF7) is entered as inactive: -0.071
